This is one part of the list. These are further read-outs of the screen, such as a control signal, another cell line or another target. No call is given for them. Most of these compounds were active or inconclusive in the main read-out, so they are no random draw. Potencies come from curve fits of mixed quality, noted in brackets.

42 molecules from PubChem BioAssay AID493014 (National Center for Advancing Translational Sciences (NCATS), 2011) can be followed below.

This experiment can be described thus: qHTS Assay to Find Inhibitors of Chronic Active B-Cell Receptor Signaling. Particulars: ABC-DLBCL IkBa-CBG/CBR reporter, luminescence ratio (green luciferase fused to IkBa over red control in TMD8 lymphoma cells), 4 h. The method in brief: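 TMD8 ABC-DLBCL cells carrying doxycycline-inducible green luciferase fused to IkappaBalpha plus unfused red luciferase were exposed to compounds (up to 46 uM) for 4 hrs at 37C. Activity came from the overlap-corrected green/red luminescence ratio.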
A general note: In qHTS, concentration-response curves come from the screen itself.

Setting [1] is: measured here: CBR red luminescence, cell number.
The mark [2] stands for this setting: measured here: IkBa-CBG green luminescence.

In general, AC50 refers to the concentration at which the activity in the assay is half-maximal. On to `O=C(O)C1C2CCC(O2)C1C(=O)Nc1cnn(Cc2ccccc2)c1` (stereo not drawn), for which the AC50 under setting [1] is 16.4 µM [rising, single point]. For the molecule `C=CCSc1nnc2c(n1)[nH]c1c(C)cccc12`, the AC50 under setting [1] is 7.94 µM [falling, partial curve].

Take `CCOc1ccc(-c2cc(CCCC(=O)Nc3cc(OC)ccc3OC)no2)cc1`: the concentration at half-maximal activity (AC50) under setting [1] is 2 µM [falling, full curve, poor fit]. In the case of `CCOP(=O)(OCC)/C(C#N)=C/c1c[nH]c2ccccc12`, under setting [1], the AC50 is 15.8 µM [falling, single point]. On the same count and under the same terms, under `CCN(CC)CCNC(=O)C1c2ccccc2C(=O)N(CCOC)C1c1ccc(F)cc1` (stereo not drawn) stands 7.31 µM [falling, partial curve, poor fit]; under `COc1cccc(C(=O)NCC(c2cccs2)N2CCc3ccccc32)c1` (stereo not drawn), 29.1 µM [falling, partial curve, poor fit]. On the same count and under the same terms, under `O=C(NCCc1csc(-c2ccccc2)n1)c1c(F)cccc1Cl` stands 3.16 µM [rising, partial curve]; under `Cc1ccc(-c2nn3c(C)nnc3c3ccccc23)cc1S(=O)(=O)NCCN1CCOCC1`, 35.5 µM [rising, single point]. For `CCSc1nnc(NC(=O)c2cccs2)s1`, the AC50 under setting [1] was 6.31 µM [falling, partial curve, poor fit]. Still for that read-out and setting: under `CCOC(=O)C1CCN(Cc2cnc(Oc3ccc(N)cc3)s2)CC1` stands 11.6 µM [rising, partial curve, poor fit]; under `O=C(Nc1ccc(Br)cc1Cl)NC1CC1`, 3.98 µM [rising, single point]. Take `CCOc1ccc2[nH]c(=O)c(C(c3nnnn3Cc3ccco3)N3CCN(C)CC3)cc2c1` (stereo not drawn): the AC50 is, setting by setting: under setting [1], 1 µM [falling, full curve]; under setting [2], 6.31 µM [rising, full curve, poor fit].

As for `COc1ccc(CCC(=O)NCCc2ccc(OC)c(OC)c2)cc1`, the AC50 under setting [1] was 5.01 µM [rising, single point]. `COc1ccc(/C=N/NC(=O)c2cnccn2)cc1O`: the AC50 under setting [1] was 20.6 µM [falling, single point].

In the case of `Cc1cc2[nH]c3ccccc3c2cn1`, under setting [1], the AC50 is 20 µM [falling, partial curve, poor fit]. Still for that read-out and setting: under `CC(C)c1nc(N2CCN(C(=O)c3ccco3)CC2)c2c3c(sc2n1)CCCC3` stands 29.1 µM [falling, single point]; under `COc1cc(/C=N/N=C(N)N)ccc1OCc1ccccc1Cl`, 25.1 µM [falling, single point]. On the same count and under the same terms, under `Cc1cc(C)nc(N/N=C/c2ccccc2OCC(=O)O)n1` stands 15.8 µM [falling, partial curve, poor fit]; under `Cc1csc(NC(=O)c2ccc(N3CCCC3=O)cc2)n1`, 2.82 µM [falling, partial curve, poor fit]. The same measure, in the same setting: under `CCOc1ccccc1N(C(=O)c1snc(C(N)=O)c1N)C(C(=O)NCCC(C)C)c1ccco1` (stereo not drawn) stands 15.8 µM [falling, single point]; under `CC(C)(C)c1ccc(OCCCC(=O)Nc2cccc(S(=O)(=O)N3CCOCC3)c2)cc1`, 23.1 µM [falling, single point]; under `Clc1ccc(-c2nnc(NCc3ccccc3)c3ccccc23)cc1`, 1.46 µM [rising, full curve, poor fit]. Consider `CCn1nccc1C(=O)Nc1nc2ccccc2n1CCN1CCCCC1`, for which the AC50 under setting [1] is 35.5 µM [falling, single point].

Consider `CC(C)(C)OC(=O)[C@H](Cc1ccccc1)NC(=O)c1[nH]cnc1C(=O)Nc1cccc(Cl)c1`, for which the AC50 under setting [1] is 31.6 µM [rising, single point]. On the same count and under the same terms, under `O=C(Nc1ccc(Cc2ccncc2)cc1)C1CCC(N2C(=O)C3CCCCC3C2=O)CC1` (stereo not drawn) stands 15.8 µM [rising, partial curve, poor fit]; under `O=C(CCC1CCCC1)N1CCN(C2CCCC2)CC1`, 0.13 µM [falling, full curve, poor fit]. Turning to `O/N=C\c1ccc(-c2ccccc2)o1`, the AC50 under setting [1] was 0.058 µM [rising, full curve, poor fit]. For the molecule `O=C(Nc1ccc(F)cc1)C(c1ccccc1)N1CCN(S(=O)(=O)c2c(F)cccc2F)CC1` (stereo not drawn), under setting [1], the AC50 is 23.1 µM [rising, partial curve, poor fit]. Turning to `CC(C)COCC(CN(Cc1ccccc1)c1ccccc1)N1CCCC1` (stereo not drawn), under setting [1], the AC50 was 35.5 µM [falling, single point].

`Oc1ccccc1N1CCN(c2ncccn2)CC1`: the AC50 under setting [1] was 0.58 µM [rising, full curve]. Regarding `O=C(Oc1ccc(Cl)c2cccnc12)C12CC3CC(CC(C3)C1)C2`, under setting [2], the AC50 is 4.61 µM [falling, full curve].

Regarding `Cc1ccccc1OC(C)C(=O)NC1CCCC1` (stereo not drawn), under setting [1], the AC50 was 6.51 µM [rising, partial curve, poor fit]. On to `N=c1n(CCN2CCOCC2)c2ccccc2n1CC(=O)c1ccc(Cl)c(Cl)c1`, for which the AC50 under setting [1] was 4.47 µM [falling, partial curve, poor fit]. For the molecule `O=C(Nc1cc(S(=O)(=O)N2CCOCC2)ccc1N1CCOCC1)c1ccccc1[N+](=O)[O-]`, under setting [1], the AC50 was 13 µM [rising, single point].

With `O=C(c1cc(-c2ccc(F)cc2)on1)N1CCCC1`, under setting [1], the AC50 was 7.08 µM [falling, partial curve]. On the same count and under the same terms, under `CSc1ccccc1NC(=O)Nc1cccc(Cl)c1Cl` stands 2.59 µM [falling, full curve]. Regarding `COc1ccc2c(CC(=O)NCc3ccc4c(c3)OCO4)coc2c1`, the half-maximal activity concentration (AC50) under setting [1] was 2.59 µM [falling, full curve]. The same measure, in the same setting: under `COC(=O)[C@@H](CC(C)C)NS(=O)(=O)N(Cc1ccccc1)[C@@H](CC(C)C)C(=O)OC` stands 23.1 µM [falling, single point]; under `C/C(=N/NC(=O)c1cccs1)c1cccc(N)c1`, 20 µM [falling, partial curve]; under `COc1cc(OC)c(-c2cc(C(=O)O)ccc2OC)c(OC)c1`, 18.4 µM [rising, partial curve, poor fit]. Same read-out and setting: under `Cc1ccc(SCC(=O)c2c(C)[nH]c3ccccc23)cc1` stands 0.58 µM [rising, partial curve]; under `Cc1ccc(NC(=O)c2ccc(NCCCN3CCC(C)CC3)c([N+](=O)[O-])c2)cc1F`, 8.91 µM [falling, partial curve].
